Reference: US20140127681A1
Results are given in words; binding and its absence hold for the method and conditions named. Some entries that bind do so weakly or less than the wild type.

Sequences of proteins named here, by UniProt entry; tags and fusion partners are left off.
UniProt P0CE48: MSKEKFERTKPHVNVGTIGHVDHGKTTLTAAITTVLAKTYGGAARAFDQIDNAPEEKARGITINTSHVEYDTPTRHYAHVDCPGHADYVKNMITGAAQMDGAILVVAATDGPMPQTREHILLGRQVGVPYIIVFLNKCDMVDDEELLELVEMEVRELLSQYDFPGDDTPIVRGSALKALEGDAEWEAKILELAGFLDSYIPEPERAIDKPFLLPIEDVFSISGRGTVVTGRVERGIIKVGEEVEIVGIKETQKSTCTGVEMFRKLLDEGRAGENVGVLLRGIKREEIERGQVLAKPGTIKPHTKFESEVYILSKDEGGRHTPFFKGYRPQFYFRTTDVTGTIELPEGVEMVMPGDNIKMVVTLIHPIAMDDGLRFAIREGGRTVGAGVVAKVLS
UniProt P0A6P1: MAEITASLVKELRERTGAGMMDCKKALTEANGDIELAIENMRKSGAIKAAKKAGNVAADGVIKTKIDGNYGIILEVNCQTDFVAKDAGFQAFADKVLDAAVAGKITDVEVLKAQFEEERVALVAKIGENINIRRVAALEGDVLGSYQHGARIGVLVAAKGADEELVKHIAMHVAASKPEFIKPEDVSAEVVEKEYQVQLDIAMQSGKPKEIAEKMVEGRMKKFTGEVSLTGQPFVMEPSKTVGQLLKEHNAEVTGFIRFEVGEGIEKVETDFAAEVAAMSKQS

Assays:
[1] = molecular target: EF-Tu (Example 9, purified by Ni-NTA affinity chromatography) (E. coli) (UniProt P0CE48); test: EF-Tu mixed with EF-Ts (1:1.1) at 37 C for 20 min, then Sephadex 75 gel filtration
[2] = molecular target: 6-His tagged ACP-EF-Tu (EF-Tu with an N-terminal histidine tag and a C-terminal AcpS tag) (E. coli) (UniProt P0CE48); test: co-incubation at 37 C for 30 min with 1.2 molar excess of EF-Ts, then Sephadex 75 gel filtration
[3] = molecular target: cleaved native EF-Tu (E. coli) (UniProt P0CE48); test: as above
[4] = molecular target: 6-His tagged ACP-EF-Tu (EF-Tu with an N-terminal histidine tag and a C-terminal AcpS tag) (E. coli) (UniProt P0CE48); test: nickel-NTA capture by the His tag of dye-labelled EF-Tu, eluted as a complex with EF-Ts

Measured: binding

Elongation Factor-Ts (EF-Ts) (from UniProt P0A6P1 1-283)
binds: all assays above
